# Assay results published in article PMC7348167.
# Amino acid sequences for entries named in this document (tags omitted).
# UniProt Q99683: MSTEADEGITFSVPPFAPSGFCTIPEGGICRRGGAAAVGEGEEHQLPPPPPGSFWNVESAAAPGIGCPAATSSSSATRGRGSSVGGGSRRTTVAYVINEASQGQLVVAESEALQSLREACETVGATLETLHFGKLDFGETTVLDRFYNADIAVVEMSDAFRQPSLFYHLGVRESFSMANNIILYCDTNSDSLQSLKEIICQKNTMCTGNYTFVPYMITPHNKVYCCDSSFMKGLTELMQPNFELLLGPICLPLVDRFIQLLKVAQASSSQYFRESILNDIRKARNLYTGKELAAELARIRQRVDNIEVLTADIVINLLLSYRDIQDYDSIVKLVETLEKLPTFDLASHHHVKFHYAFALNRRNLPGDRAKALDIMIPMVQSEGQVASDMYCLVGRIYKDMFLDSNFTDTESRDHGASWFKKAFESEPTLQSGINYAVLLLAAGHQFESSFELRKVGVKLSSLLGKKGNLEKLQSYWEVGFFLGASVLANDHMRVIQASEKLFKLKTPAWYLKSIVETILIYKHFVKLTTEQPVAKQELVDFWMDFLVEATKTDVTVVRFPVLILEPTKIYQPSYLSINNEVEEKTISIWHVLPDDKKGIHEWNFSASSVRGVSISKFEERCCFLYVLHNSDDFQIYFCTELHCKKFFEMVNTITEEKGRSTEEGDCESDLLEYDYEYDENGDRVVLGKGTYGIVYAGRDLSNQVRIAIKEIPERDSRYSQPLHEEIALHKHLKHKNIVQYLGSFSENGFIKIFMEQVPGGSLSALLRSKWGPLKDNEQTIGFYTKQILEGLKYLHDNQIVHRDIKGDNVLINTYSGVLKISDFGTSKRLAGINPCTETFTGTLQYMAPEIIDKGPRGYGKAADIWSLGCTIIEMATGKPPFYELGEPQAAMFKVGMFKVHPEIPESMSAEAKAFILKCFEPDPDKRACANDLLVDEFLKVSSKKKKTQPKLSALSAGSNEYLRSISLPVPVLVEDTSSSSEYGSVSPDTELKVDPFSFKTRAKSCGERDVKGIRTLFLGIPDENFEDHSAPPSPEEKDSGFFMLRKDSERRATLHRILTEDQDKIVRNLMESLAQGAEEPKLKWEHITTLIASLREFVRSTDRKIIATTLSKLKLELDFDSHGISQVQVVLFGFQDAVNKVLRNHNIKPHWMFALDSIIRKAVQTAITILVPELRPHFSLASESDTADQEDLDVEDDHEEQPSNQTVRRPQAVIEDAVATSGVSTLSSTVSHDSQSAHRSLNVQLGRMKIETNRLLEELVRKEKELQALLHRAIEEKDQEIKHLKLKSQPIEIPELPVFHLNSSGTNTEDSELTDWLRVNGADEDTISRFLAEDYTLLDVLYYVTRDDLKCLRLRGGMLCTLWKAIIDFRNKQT
# UniProt P49407: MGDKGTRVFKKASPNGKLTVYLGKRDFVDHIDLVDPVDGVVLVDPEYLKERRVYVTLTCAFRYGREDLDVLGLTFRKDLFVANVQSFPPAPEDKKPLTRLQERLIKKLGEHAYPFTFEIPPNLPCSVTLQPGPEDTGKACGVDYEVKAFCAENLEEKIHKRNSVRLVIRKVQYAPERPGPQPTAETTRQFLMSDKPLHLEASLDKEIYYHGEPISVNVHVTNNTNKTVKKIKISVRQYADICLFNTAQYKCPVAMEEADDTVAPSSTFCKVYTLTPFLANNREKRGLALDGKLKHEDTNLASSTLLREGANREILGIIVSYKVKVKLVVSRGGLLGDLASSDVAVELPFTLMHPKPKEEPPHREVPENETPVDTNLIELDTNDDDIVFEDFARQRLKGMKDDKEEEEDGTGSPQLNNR
# These are yes or no findings as the source states them, for the method shown. In cells and extracts the contact can be indirect. Some entries that bind do so weakly or less than the wild type.
# Molecular target: His-ASK1 (UniProt Q99683)
# Experiment: co-IP; L02 cells cotransfected for 2 days (Flag-ARRB1 and His-ASK1, or His-ASK1 and HA-TRAF6), sonicated in ice-cold IP lysis buffer; lysates incubated with antibody-bound beads (anti-His, anti-HA or anti-Flag) 2 h at room temperature or overnight at 4°C; Western blot; cells under normal condition, after H/R challenge, or after shRNA knock-down of ARRB1
substance,measurement,value
Flag-ARRB1 (from UniProt P49407 1-418),binding,binds
